The values that follow come from PMC1978536, “MVB-12, a Fourth Subunit of Metazoan ESCRT-I, Functions in Receptor Downregulation” (PLoS ONE, 2007).

Protein sequences, listed by entry. Tags and fused reporters are not part of them. Lines headed by an entry give the natural chain unless they say otherwise; changes in a name come on top.
UniProt O44158: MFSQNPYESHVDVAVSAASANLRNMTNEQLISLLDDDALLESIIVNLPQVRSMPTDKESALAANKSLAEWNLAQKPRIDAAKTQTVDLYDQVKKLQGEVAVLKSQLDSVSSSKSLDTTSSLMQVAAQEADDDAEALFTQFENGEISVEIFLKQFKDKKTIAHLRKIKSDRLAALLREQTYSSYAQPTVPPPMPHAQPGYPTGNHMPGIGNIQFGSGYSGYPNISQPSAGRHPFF
UniProt Q22866: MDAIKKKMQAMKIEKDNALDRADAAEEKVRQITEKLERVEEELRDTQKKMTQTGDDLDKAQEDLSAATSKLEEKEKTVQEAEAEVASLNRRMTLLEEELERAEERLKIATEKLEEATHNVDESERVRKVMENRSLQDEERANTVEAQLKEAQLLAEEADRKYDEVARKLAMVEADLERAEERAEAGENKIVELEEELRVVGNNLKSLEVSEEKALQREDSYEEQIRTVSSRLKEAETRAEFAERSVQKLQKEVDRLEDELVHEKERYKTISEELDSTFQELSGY
UniProt Q17687: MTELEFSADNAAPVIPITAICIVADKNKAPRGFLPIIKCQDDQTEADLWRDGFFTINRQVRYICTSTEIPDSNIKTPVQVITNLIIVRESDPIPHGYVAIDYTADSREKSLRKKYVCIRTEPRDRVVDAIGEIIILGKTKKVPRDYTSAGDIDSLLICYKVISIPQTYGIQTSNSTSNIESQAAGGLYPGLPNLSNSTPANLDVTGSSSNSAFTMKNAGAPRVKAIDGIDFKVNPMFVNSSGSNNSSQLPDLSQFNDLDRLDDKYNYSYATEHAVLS

These are yes or no findings as the source states them, for the method shown. Binding seen in cells or lysates may run through a third protein. Here binding means that the protein was enriched with, or labelled near, the bait; the list need not be complete. No binding means not detected with the bait.

For this assay, the target named is GFP^LAP:VPS-37, fusion of VPS-37 with a GFP containing tandem affinity purification tag (C. elegans) (UniProt O44158). Description: affinity purification with mass spectrometry; GFP^LAP:VPS-37 isolated from C. elegans embryo extracts with anti-GFP antibodies, GFP removed by protease cleavage, re-isolated on S-protein agarose and eluted; solution mass spectrometry of the eluate.

For LEV-11 (from UniProt Q22866 1-284), the binding result was “no binding”.

Regarding “MVB-12 (C. elegans, endogenous) (from UniProt Q17687)”, the binding entry is given as “binds”.

B1: VPS-28 (recombinant C. elegans) (natural protein, UniProt Q9NA26 1-210, looked up)
chain: MSSQNANLMREVRLFENHSEREQMENLSELFAVLNALEHLEKMFSRDHVSADEYKSECFKLIDQYKVTMRLVHGATSIEDFAKKYRLHCPAAIERIREGRPITVKDDQGNVLKHIASIVEQFITFLDALRLNTRAVDDLYPGLDDLYNAINTTSRVPIDAIVTTKVKKWHDRLSSMAASDEISDEDARQMIFDVESAYQAFNKALNELKH
notes: VPS-28, C. elegans; open reading frame amplified from N2 cDNA
Turning to B1, the binding entry is “binds”.
